PubChem BioAssay AID1671195 – Yale University, 2021
In all, the deposit lists about 22,000 reagents; shown is a random part of them. Of all reagents, about 1,510 (6.9%) got an active call. 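Active includes knockdowns raising or lowering LDL uptake; positive z-scores mean more uptake, negative mean less.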 Unmarked entries are inactive.

Purpose: 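Knockdowns that increase or decrease uptake of fluorescent LDL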 (primary screen)
System: human Huh7 hepatoma cells
Knock-down reagent: siRNA pool against human genes, 18 nM
Time to read-out: about 2 to 2.5 days of knockdown, then 8 h LDL uptake
Challenge: DiI-labelled LDL at 30 µg/ml for 8 h, in lipoprotein-deficient serum medium
Read-out: 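Fluorescent LDL signal imaged in cells, scaled to the plate median, robust z-score for each replicate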
Scale: robust z-score: higher = more LDL uptake after knockdown
Rule for the call: 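a gene counts as active if at least two replicate z-scores exceed ±2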

Against RELA (RELA proto-oncogene, NF-kB subunit) the deposit lists robust z-score, replicate 1 = -0.684; robust z-score, replicate 2 = 0.45; robust z-score, replicate 3 = -0.375.
Depletion of PTGDS (prostaglandin D2 synthase) resulted in: robust z-score, replicate 1 = -0.684; robust z-score, replicate 2 = -0.833; robust z-score, replicate 3 = -1.
With knock-down of PSEN2 (presenilin 2) the results were robust z-score, replicate 1 = 2.7 (active); robust z-score, replicate 2 = 1.91; robust z-score, replicate 3 = 3.1.
TRIM14 (tripartite motif containing 14) scored robust z-score, replicate 1 = 1.38; robust z-score, replicate 2 = 0.81; robust z-score, replicate 3 = 0.634.
For SLC38A4, the values are robust z-score, replicate 1 = 0.667; robust z-score, replicate 2 = -0.425; robust z-score, replicate 3 = -0.00404.
With knock-down of SLC35E4, the record shows robust z-score, replicate 1 = -0.92; robust z-score, replicate 2 = -0.99; robust z-score, replicate 3 = -1.25.
With knock-down of PLXDC2 (plexin domain containing 2) the results were robust z-score, replicate 1 = -0.839; robust z-score, replicate 2 = -0.149; robust z-score, replicate 3 = -0.161.
Against NLRP1 (NLR family pyrin domain containing 1), the values are robust z-score, replicate 1 = -0.716; robust z-score, replicate 2 = -1.26; robust z-score, replicate 3 = -0.543.

Looked up above.
Under “robust z-score, replicate 1”, RELA (RELA proto-oncogene, NF-kB subunit) shows -0.684
PSEN2 (presenilin 2), robust z-score, replicate 3: 3.1 (active)
PTGDS (prostaglandin D2 synthase), robust z-score, replicate 3 → -1

The listing continues:
Against MAPKAP1 (MAPK associated protein 1) the deposit lists robust z-score, replicate 1 = -0.948; robust z-score, replicate 2 = -1.01; robust z-score, replicate 3 = -1.87.
Knock-down of FLJ14082 (retired record) came out at: robust z-score, replicate 1 = -0.311; robust z-score, replicate 2 = 0.0632; robust z-score, replicate 3 = 0.0604.
Against LOC389059 (retired record) the deposit lists robust z-score, replicate 1 = 1.35; robust z-score, replicate 2 = 1.54; robust z-score, replicate 3 = 1.58.
With knock-down of NEUROG1 (neurogenin 1), the screen gave robust z-score, replicate 1 = 0.142; robust z-score, replicate 2 = 0.406; robust z-score, replicate 3 = 1.18.
Silencing of DEFB130A (defensin beta 130A) resulted in: robust z-score, replicate 1 = -1.98 (active); robust z-score, replicate 2 = -2.09; robust z-score, replicate 3 = -1.91.
Silencing of ZC3H11D (zinc finger CCCH-type containing 11D) resulted in: robust z-score, replicate 1 = -0.253; robust z-score, replicate 2 = 0.0462; robust z-score, replicate 3 = -0.399.
SLC1A3 scored robust z-score, replicate 1 = -0.632; robust z-score, replicate 2 = -0.887; robust z-score, replicate 3 = -0.841.
Depletion of PGM5P1 gave: robust z-score, replicate 1 = 0.228; robust z-score, replicate 2 = 0.773; robust z-score, replicate 3 = 0.734.
FSTL5 (follistatin like 5) showed robust z-score, replicate 1 = 0.356; robust z-score, replicate 2 = 0.311; robust z-score, replicate 3 = 0.123.
Silencing of NUP133 (nucleoporin 133) resulted in: robust z-score, replicate 1 = -0.994; robust z-score, replicate 2 = -1.52; robust z-score, replicate 3 = -1.03.
With knock-down of GGA1 the results were robust z-score, replicate 1 = -0.429; robust z-score, replicate 2 = -0.656; robust z-score, replicate 3 = -0.366.
LOC388798 (retired record) showed robust z-score, replicate 1 = 0.557; robust z-score, replicate 2 = -0.018; robust z-score, replicate 3 = 0.0152.
With knock-down of TMEM50A (transmembrane protein 50A) the results were robust z-score, replicate 1 = -0.199; robust z-score, replicate 2 = 0.927; robust z-score, replicate 3 = -1.79.
Against WDR91 (WD repeat domain 91), the entry reads robust z-score, replicate 1 = -0.653; robust z-score, replicate 2 = -0.647; robust z-score, replicate 3 = -0.35.
After knock-down of PKIA (cAMP-dependent protein kinase inhibitor alpha) the results were robust z-score, replicate 1 = -0.637; robust z-score, replicate 2 = -1.7; robust z-score, replicate 3 = -1.39.
HSPE1 (heat shock protein family E (Hsp10) member 1) gave robust z-score, replicate 1 = 0.205; robust z-score, replicate 2 = 0.262; robust z-score, replicate 3 = 0.0738.
